# Reference: paper PMC5086636 (Toxins, 2016)
# Amino acid sequences for entries named in this document (tags omitted).
# UniProt P10844: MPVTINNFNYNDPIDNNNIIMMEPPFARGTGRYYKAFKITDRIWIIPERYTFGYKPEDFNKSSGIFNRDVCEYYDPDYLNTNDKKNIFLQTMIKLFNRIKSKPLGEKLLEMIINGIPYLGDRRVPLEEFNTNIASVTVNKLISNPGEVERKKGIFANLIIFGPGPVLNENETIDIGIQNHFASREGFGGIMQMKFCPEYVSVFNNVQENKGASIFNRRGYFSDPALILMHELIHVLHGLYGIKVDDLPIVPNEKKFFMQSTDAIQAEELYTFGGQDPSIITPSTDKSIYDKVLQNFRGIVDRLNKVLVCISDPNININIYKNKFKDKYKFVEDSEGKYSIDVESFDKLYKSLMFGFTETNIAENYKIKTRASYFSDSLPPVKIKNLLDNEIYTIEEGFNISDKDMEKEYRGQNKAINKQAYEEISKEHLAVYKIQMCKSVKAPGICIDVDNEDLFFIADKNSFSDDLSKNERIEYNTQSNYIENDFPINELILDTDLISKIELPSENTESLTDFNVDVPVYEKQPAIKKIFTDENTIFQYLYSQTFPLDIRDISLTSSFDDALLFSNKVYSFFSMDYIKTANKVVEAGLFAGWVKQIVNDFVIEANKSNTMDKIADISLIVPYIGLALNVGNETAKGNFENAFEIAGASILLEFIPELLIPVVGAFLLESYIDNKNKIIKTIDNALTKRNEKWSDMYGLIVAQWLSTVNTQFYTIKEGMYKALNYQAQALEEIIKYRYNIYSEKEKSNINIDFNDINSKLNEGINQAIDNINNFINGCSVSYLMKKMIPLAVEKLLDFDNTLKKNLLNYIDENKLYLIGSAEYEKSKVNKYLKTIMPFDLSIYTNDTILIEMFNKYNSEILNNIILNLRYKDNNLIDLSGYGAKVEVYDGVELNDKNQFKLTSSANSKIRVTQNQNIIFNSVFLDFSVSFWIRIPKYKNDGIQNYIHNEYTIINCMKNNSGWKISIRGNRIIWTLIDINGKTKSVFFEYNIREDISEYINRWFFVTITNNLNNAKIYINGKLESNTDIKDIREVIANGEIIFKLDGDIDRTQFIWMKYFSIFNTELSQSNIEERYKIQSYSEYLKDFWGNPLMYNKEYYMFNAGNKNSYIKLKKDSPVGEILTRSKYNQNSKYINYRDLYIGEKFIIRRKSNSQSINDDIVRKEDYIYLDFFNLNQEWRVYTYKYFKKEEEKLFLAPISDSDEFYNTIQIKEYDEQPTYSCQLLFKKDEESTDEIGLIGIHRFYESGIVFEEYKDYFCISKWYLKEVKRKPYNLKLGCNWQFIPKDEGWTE
# These are yes or no findings as the source states them, for the method shown. Some entries that bind do so weakly or less than the wild type.
# Target: Syt-II_(40-60) peptide (amino acid residues 40-60 of the mouse synaptotagmin protein) (mouse)
# Test: ELISA; only the target purified
substance,measurement,value
Botulinum neurotoxin type B (from UniProt P10844 1-1291),binding,binds
